Assay results taken from the supplement of paper PMC10626197.
Several reference drugs read as weak here; read low effects with care.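 MCF7, a breast cancer cell line, was exposed to pairs of drugs across a grid of doses. Every plate had solvent-only (DMSO) wells as the untreated reference and a doxorubicin series as the total-kill control. No hit threshold is applied to these viability readings.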

Tested on: MCF7
Assay: cell viability relative to DMSO control (raw); higher = more viable cells
Conditions: exposure time 72 h
Description: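 MCF7 cells, 1000 cells/well in 384-well plates, treated with 6x6 dose matrices of drug pairs (1:3 serial dilutions, DMSO as lowest dose) for 72 h at 37 °C. Viability read by CellTiter-Glo luminescence, 3 biological replicates. Normalised viability sets 0% at the highest doxorubicin dose and 100% at the 0,0 µM control per combination.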

C/C(=C\c1csc(C)n1)[C@@H]1C[C@@H]2O[C@]2(C)CCC[C@H](C)[C@H](O)[C@@H](C)C(=O)C(C)(C)[C@@H](O)CC(=O)N1 [ixabepilone] + C=CC(=O)Nc1cccc(Nc2nc(Nc3ccc(OCCOC)cc3)ncc2F)c1 [Spebrutinib]
cell viability [%]
Conditions | drug 2 concentration 0 µM | drug 2 concentration 0.37037 µM | drug 2 concentration 1.11111 µM | drug 2 concentration 3.33333 µM | drug 2 concentration 10 µM | drug 2 concentration 30 µM
drug 1 concentration 0.00185185 µM | 103 | 99.9 | 97.3 | 84.7 | 58.3 | 2.79
drug 1 concentration 0.00555556 µM | 111 | 101 | 100 | 95.6 | 68.9 | 1.75
drug 1 concentration 0.0166667 µM | 89 | 90.5 | 92.1 | 83.9 | 61.7 | 2.8
drug 1 concentration 0.05 µM | 95 | 95.4 | 94.9 | 80.1 | 60.6 | 1.03
drug 1 concentration 0.15 µM | 95.7 | 101 | 110 | 89.4 | 62.5 | 1.7

O=P(O)(O)C(O)(Cn1ccnc1)P(=O)(O)O [Zoledronic] + CCOC(=O)N1CCC(=C2c3ccc(Cl)cc3CCc3cccnc32)CC1 [Loratadine]
cell viability [%]
Conditions | drug 2 concentration 0 µM | drug 2 concentration 0.0617284 µM | drug 2 concentration 0.185185 µM | drug 2 concentration 0.555556 µM | drug 2 concentration 1.66667 µM | drug 2 concentration 5 µM
drug 1 concentration 0.0493827 µM | 95.1 | 97.2 | 99.4 | 98.5 | 90.2 | 78.8
drug 1 concentration 0.148148 µM | 95.5 | 107 | 97.8 | 94 | 97 | 89.2
drug 1 concentration 0.444444 µM | 95.2 | 99.2 | 96.1 | 96.3 | 88.2 | 82.02
drug 1 concentration 1.33333 µM | 107 | 107 | 101 | 102 | 101 | 91.5
drug 1 concentration 4 µM | 106 | 107 | 113 | 101 | 98.4 | 86.6

CS(=O)(=O)CCNCc1ccc(-c2ccc3ncnc(Nc4ccc(OCc5cccc(F)c5)c(Cl)c4)c3c2)o1 [Lapatinib] + C[C@]12C=CC(=O)C=C1CC[C@@H]1[C@@H]2[C@@H](O)C[C@@]2(C)[C@H]1CC[C@]2(O)C(=O)CO [Prednisolone]
cell viability [%]
Conditions | drug 2 concentration 0 µM | drug 2 concentration 0.0617284 µM | drug 2 concentration 0.185185 µM | drug 2 concentration 0.555556 µM | drug 2 concentration 1.66667 µM | drug 2 concentration 5 µM
drug 1 concentration 0.123457 µM | 92.6 | 94.5 | 82.4 | 91 | 86.4 | 87.1
drug 1 concentration 0.37037 µM | 100 | 103 | 94.6 | 106 | 93.5 | 89.2
drug 1 concentration 1.11111 µM | 90.9 | 95.3 | 88.4 | 84.2 | 87.5 | 87.9
drug 1 concentration 3.33333 µM | 80.9 | 82.3 | 82.4 | 86 | 78 | 70.3
drug 1 concentration 10 µM | 2.28 | 2.09 | 2.5 | 2.17 | 1.97 | 2.22

NC(=O)NO [Hydroxyurea] + Cc1[nH]c(/C=C2\C(=O)Nc3ccccc32)c(C)c1CCC(=O)O [Orantinib]
cell viability [%]
Conditions | drug 2 concentration 0 µM | drug 2 concentration 0.320988 µM | drug 2 concentration 0.962963 µM | drug 2 concentration 2.88889 µM | drug 2 concentration 8.66667 µM | drug 2 concentration 26 µM
drug 1 concentration 0.555556 µM | 82.6 | 89.4 | 93.8 | 90.1 | 76.5 | 72.5
drug 1 concentration 1.66667 µM | 82.8 | 96.1 | 105 | 96.3 | 90.3 | 75.2
drug 1 concentration 5 µM | 91 | 85.6 | 96.2 | 91.6 | 83.7 | 71.6
drug 1 concentration 15 µM | 99.7 | 96.7 | 88.6 | 96 | 90.3 | 85.8
drug 1 concentration 45 µM | 98.4 | 112 | 109 | 102 | 102 | 82.5
